From publication PMC7819943, “Rice protein-binding microarrays: a tool to detect cis-acting elements near promoter regions in rice” come the findings set out here.

Some of the results follow.

The target of this experiment is T1, OsSMF1 (Oryza sativa, UniProt Q6ZLB0 1-436).
T1 sequence: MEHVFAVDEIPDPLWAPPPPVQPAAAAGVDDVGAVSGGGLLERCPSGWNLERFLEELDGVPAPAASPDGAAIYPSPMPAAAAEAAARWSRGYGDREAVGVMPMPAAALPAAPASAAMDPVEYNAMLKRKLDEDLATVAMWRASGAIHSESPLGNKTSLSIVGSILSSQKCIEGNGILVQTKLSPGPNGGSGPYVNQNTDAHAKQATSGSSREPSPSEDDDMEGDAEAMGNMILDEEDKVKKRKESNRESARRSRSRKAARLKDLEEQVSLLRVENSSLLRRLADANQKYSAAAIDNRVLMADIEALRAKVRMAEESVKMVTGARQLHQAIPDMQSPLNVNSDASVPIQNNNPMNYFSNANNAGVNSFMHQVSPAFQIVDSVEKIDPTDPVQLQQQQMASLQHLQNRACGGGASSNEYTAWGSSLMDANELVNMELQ
The experiment can be described thus: protein-binding microarray (RPBM); PBS, 2% BSA, 51.3 ng/ul salmon testes DNA, 50 uM zinc acetate, 200 nM TF, 25 C, 1 h; high values mean tight binding. The note with it: protein: recombinant; tags: N-terminal polyhistidine and DsRed monomer fusion (pET32a); chain copies: 2; label: CyDye5-dUTP incorporated in the synthesized complementary strand; 3' TTTTT single-stranded linker to array surface; dsDNA, one strand shown. The procedure, abridged:
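The binding signal is fluorescence intensity per array feature (arbitrary units). Readings came from an Axon 4000B scanner after a washed, 2% BSA-blocked, double-stranded custom Agilent array had been incubated for 1 h at 25 °C with 200 nM protein and 50 µM zinc acetate. The protein was a Ni–NTA-purified transcription factor fused N-terminally to polyhistidine and DsRed, expressed in E. coli BL21-CodonPlus.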
With “CTTCATACGAACCTGCAGTGGTGACGGCGCACAGGAAGGGCGGAGTCACCTAGTGCAG”, the binding signal was 3740 fluorescence intensity (a.u.).
Under “GTCCTACGGGGCTGCTGAATCAGCGTGGAACCCACGCGGACGGAGTCACCTAGTGCAG” stands 5600 fluorescence intensity (a.u.); under “GCCTCAATGGCGTACTCGACCTGGAACAACCGCCCCTCCGCGGAGTCACCTAGTGCAG”, 3660 fluorescence intensity (a.u.); under “ATAAGTGCAGCCGTGGATATCCGTGCCCAACGTTTGACCGCGGAGTCACCTAGTGCAG”, 3440 fluorescence intensity (a.u.).
Under “TTTAGTTGCCCAGAAATGCATTGTCATCAAGTTGTTGTACCGGAGTCACCTAGTGCAG” stands 36000 fluorescence intensity (a.u.); under “GGGGATTGAGATCCTATGACGTTACTGTTCACCGTAACTGCGGAGTCACCTAGTGCAG”, 4770 fluorescence intensity (a.u.); under “ACAGAGACAAAACGATTACGTAAAGCTTGATTTCCGCCTTCGGAGTCACCTAGTGCAG”, 4060 fluorescence intensity (a.u.).
With “CATGGTAGAAAATTAGATTATGGTGCATTTGCTGCAAATGCGGAGTCACCTAGTGCAG” the figure was 3860 fluorescence intensity (a.u.); with “ACCTTTCCAATACTTTTCAATATCCGTTTCTGCCACGCCACGGAGTCACCTAGTGCAG”, 4690 fluorescence intensity (a.u.).
As to “AGTACTCTGTCCTTGTCATGCACGATTCACTTACTTCCCACGGAGTCACCTAGTGCAG”, the binding signal is 5950 fluorescence intensity (a.u.).
With “GTATATTTTAACATTGATTACCTCGTACACCTCATCTGTCCGGAGTCACCTAGTGCAG” the figure was 4710 fluorescence intensity (a.u.); with “CGGTTTTGACGGACGTGGTGCCCACGTGGCTAGTTTGACTCGGAGTCACCTAGTGCAG”, 19800 fluorescence intensity (a.u.).
For “GGCTACCCCATCGCCACCACCACCACCACCGCATCTCTCTCGGAGTCACCTAGTGCAG”, the binding signal was 3330 fluorescence intensity (a.u.).
With “AATAGCCTATCCACGGTCACGATGGTTTAGAATTCTCTTTCGGAGTCACCTAGTGCAG” the figure was 3980 fluorescence intensity (a.u.); with “CACCCCACCCCGGCGCGCGCGGCGATGCGTCACGCTTTGCCGGAGTCACCTAGTGCAG”, 6680 fluorescence intensity (a.u.); with “ATCTATCTTCATCAGCAGCAGAGGCAGAGGTGAGCTGAGCCGGAGTCACCTAGTGCAG”, 3160 fluorescence intensity (a.u.).
Regarding “AACAAATATCGTTCCTCGGTGTCGTCATCGTGTTTGGATCCGGAGTCACCTAGTGCAG”, the binding signal is 6670 fluorescence intensity (a.u.).
With “AATCACCACCTCGCCTCGCGTCACCACCTCTCGCCGCCGCCGGAGTCACCTAGTGCAG” the figure was 5330 fluorescence intensity (a.u.); with “GTTATCATTCTTGACTTCTCCCCAGATTGGAAATCACATGCGGAGTCACCTAGTGCAG”, 4230 fluorescence intensity (a.u.); with “ACACACCTTGCAGGGACACATGCAGAGTCATCAGGATGAACGGAGTCACCTAGTGCAG”, 3630 fluorescence intensity (a.u.).
Under “AGATACTTGAAGGAGTCACGGATATTGATTTGGTCATCAACGGAGTCACCTAGTGCAG” stands 3220 fluorescence intensity (a.u.); under “TGCATGGCATTAAATATGAGCAATTCAGGAATTCTGTCAGCGGAGTCACCTAGTGCAG”, 16000 fluorescence intensity (a.u.).
Under “ATCAGCTAATCTCAAGACTTCGAAGCCGATGACTACTCCGCGGAGTCACCTAGTGCAG” stands 3750 fluorescence intensity (a.u.); under “GGTATCTTGTGATGTCAGACTGATCGGTTTCCCTTGAGACCGGAGTCACCTAGTGCAG”, 30000 fluorescence intensity (a.u.).
As to “CCTTGGACACCATTAGTTTGTACGTGTTTATACGATATCGCGGAGTCACCTAGTGCAG”, the binding signal was 3320 fluorescence intensity (a.u.).
On to “CTGGTTCTCGTATCATCCTTCGCAAAACATCAGCTGAGTGCGGAGTCACCTAGTGCAG”, for which the binding signal was 3850 fluorescence intensity (a.u.).
For the sequence “GCCGGTGGTCTTCCTCGTGCCGAGCCGACGCCACCGCCGGCGGAGTCACCTAGTGCAG”, the binding signal is 3230 fluorescence intensity (a.u.).
With “CTCAAGGAGGGAGGAATGTCACGCCAGAGCATTCGTCATCCGGAGTCACCTAGTGCAG” the figure was 3330 fluorescence intensity (a.u.).
For “TAGACACACACACGCCAATCACCCATCTAATATTCACATCCGGAGTCACCTAGTGCAG”, the binding signal was 6190 fluorescence intensity (a.u.).
Under “ACTAACATATTGGTGCCACCAACACATAGGCATCACTGTGCGGAGTCACCTAGTGCAG” stands 3530 fluorescence intensity (a.u.).
As to “ACCAGATTCACCGTGATTAGTCTCACACTTAATAAATCGACGGAGTCACCTAGTGCAG”, the binding signal was 3370 fluorescence intensity (a.u.).
Under “CATGTCGTCGTCGTGGTGGTGGTGGTGGTGGTGGGGCGGGCGGAGTCACCTAGTGCAG” stands 11700 fluorescence intensity (a.u.).
Under “AAAACAACCAGAATAACAGAGAGAGGGGTCGCTGTACCCGCGGAGTCACCTAGTGCAG” stands 3270 fluorescence intensity (a.u.).
For the sequence “ACCACCGCTCCAATCACTCACGCCGCCGTGGCCGTGCATCCGGAGTCACCTAGTGCAG”, the binding signal is 3550 fluorescence intensity (a.u.).
With “GGATCCCTTTCAATGGAATGGAACGTGACGCATCGAGAAACGGAGTCACCTAGTGCAG” the figure was 3760 fluorescence intensity (a.u.).
As for “CCGCGAAAATATCACATCACACACACACGCAAACGCAAGTCGGAGTCACCTAGTGCAG”, the binding signal is 3260 fluorescence intensity (a.u.).
Turning to “ACGTGCCAGTCAGTTTGATCCTGCAACTGACAAGATATGCCGGAGTCACCTAGTGCAG”, the binding signal was 16600 fluorescence intensity (a.u.).
With “TATCTGTCGACAGATTTCGATTTCTTCACCGTCAAAATGTCGGAGTCACCTAGTGCAG” the figure was 3450 fluorescence intensity (a.u.); with “ATAAAGTTTGTAGTCATCGTCGATATCTTTCTAACGCCGCCGGAGTCACCTAGTGCAG”, 4060 fluorescence intensity (a.u.); with “TTATTTTATCTCGTGCTCATGACTGAATCATTTAGCTACCCGGAGTCACCTAGTGCAG”, 3720 fluorescence intensity (a.u.).
Turning to “GAGCAGCTGAAACCAACAGCTCGGCGAGTTCCGACGTGGACGGAGTCACCTAGTGCAG”, the binding signal was 3660 fluorescence intensity (a.u.).
Under “CGTCGACCACCACCACGCTCTTGCCCCTGATGACGCCGTGCGGAGTCACCTAGTGCAG” stands 6870 fluorescence intensity (a.u.).
